Laboratory results reported in paper PMC8062763.
These are yes or no findings as the source states them, for the method shown. In cells and extracts the contact can be indirect. Some binding calls cover weakened binding; strength is not graded here.

Chains of the proteins cited; added tags and fusions are not shown. Lines headed by an entry give the natural chain unless they say otherwise; changes in a name come on top. Residues count along the entry.
UniProt Q9LG05: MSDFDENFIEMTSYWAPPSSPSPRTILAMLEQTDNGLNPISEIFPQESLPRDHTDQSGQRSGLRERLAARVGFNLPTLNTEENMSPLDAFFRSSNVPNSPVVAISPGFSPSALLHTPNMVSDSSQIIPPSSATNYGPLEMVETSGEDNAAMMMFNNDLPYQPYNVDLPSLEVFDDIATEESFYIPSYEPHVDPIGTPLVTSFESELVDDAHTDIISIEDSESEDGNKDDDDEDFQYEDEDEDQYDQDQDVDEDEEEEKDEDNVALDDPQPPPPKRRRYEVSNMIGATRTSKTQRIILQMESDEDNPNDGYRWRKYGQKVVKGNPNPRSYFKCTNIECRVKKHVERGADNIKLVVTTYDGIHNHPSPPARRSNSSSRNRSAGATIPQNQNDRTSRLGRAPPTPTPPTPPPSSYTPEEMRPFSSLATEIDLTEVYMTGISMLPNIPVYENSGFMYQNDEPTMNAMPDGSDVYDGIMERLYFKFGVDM
C-terminal 368-485 peptide of WRKY10 (split-luciferase fusion): residues 368-485 of Q9LG05
UniProt Q9M1Z5: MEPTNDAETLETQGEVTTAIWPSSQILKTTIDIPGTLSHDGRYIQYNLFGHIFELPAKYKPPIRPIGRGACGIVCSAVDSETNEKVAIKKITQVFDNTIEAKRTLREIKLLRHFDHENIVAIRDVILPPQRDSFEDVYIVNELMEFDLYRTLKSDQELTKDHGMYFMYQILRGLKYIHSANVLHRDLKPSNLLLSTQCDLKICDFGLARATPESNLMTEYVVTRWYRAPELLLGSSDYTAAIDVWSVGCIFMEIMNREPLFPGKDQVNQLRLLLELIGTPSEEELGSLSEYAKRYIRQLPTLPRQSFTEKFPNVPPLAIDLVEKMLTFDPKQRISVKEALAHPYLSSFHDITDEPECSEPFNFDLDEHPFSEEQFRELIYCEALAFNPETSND

Experiments:
[1] = biological target: C-terminal 368-485 peptide of WRKY10 (split-luciferase fusion) (Arabidopsis thaliana) (UniProt Q9LG05); assay: split reporter; split-luciferase; CLuc and NLuc fusions co-injected by Agrobacterium into N. benthamiana leaf epidermal cells; luminescence imaged 1.5-2 days later with 1 mM luciferin
[2] = biological target: WRKY10 (split-luciferase fusion, vector JW772) (Arabidopsis thaliana) (UniProt Q9LG05); assay: as above
[3] = biological target: WRKY10-YFP (Arabidopsis thaliana) (UniProt Q9LG05); assay: co-IP; co-expression in N. benthamiana leaves for 40-48 h; lysis buffer 50 mM Tris-HCl pH 7.5, 150 mM NaCl, 2 M urea, 0.1% NP-40; anti-GFP agarose (GFP-Trap), 4 °C, 2 h; blots with anti-GFP and anti-Flag

Row | binding [1] | binding [2] | binding [3] | Substance
1 | binds | binds |  | MPK10 (split-luciferase fusion, vector JW771) (from UniProt Q9M1Z5 1-393) (enzyme)
2 |  |  | binds | MPK10-Flag (from UniProt Q9M1Z5 1-393) (enzyme)
